Measurements reported in PubChem BioAssay AID504793 (Drosophila RNAi Screening Center, 2011).
In all, the deposit lists about 23,000 reagents; shown is an unselected part of those that have a named target and a result. In the full data, 62 (0.27%) are marked active. 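Calls come from follow-up tests whose scores are not deposited, so confirmed genes may have low counts here; counts are not normalised per plate.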 Raw values vary from plate to plate and are shown uncorrected. Reagents against one gene are numbered here. Reagent sequences are not shown.

Assay: 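Whole-genome screen for parts of the DNA damage checkpoint at G2/M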 (primary screen)
Cells: Drosophila S2R+ cells
Knock-down reagent: long dsRNA against Drosophila genes, about 0.25 µg dsRNA per well
Duration: 4 days of dsRNA, then 4 hours of drug before read-out
Treatment: doxorubicin 0.5 µM for 4 hours to cause double-strand breaks, in cells also given a low, harmless dose of dsRNA against nbs to sensitise the assay
Measurement: 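Mitotic index as the number of phospho-histone H3-positive cells in each well following doxorubicin, given as raw counts without normalisation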
Direction: mitotic cells: higher = more cells in mitosis, weaker G2 arrest
Hit rule: 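Genes are called active only when high mitotic counts were reproduced with independent dsRNAs and mitosis was checked for delay without damage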
Calls: active = confirmed in follow-up tests; inactive = not confirmed

target	dsRNA no.	mitotic cells, replicate 1	mitotic cells, replicate 2	activity call
CG13924	1	9		inactive
odd	1	9		inactive
CG12093	1	5		inactive
conv	1	6		inactive
CG34125	1	7		inactive
CIAPIN1	1	3		inactive
CIAPIN1	2	4		inactive
CG2444	1	6		inactive
CG15594	1	4		inactive
sprt	1	4		inactive
S-Lap7	1	2		inactive
S-Lap7	2	6		inactive
Acat2	1	10		inactive
zld	1	10		inactive
zld	2	10		inactive
CG30288	1	9		inactive
CG30288	2	8		inactive
CG7907	1	18		inactive
CG7907	2	4		inactive
OtopLb	1	8		inactive
OtopLb	2	5		inactive
Zyx	1	6		inactive
ACXA	1	5		inactive
ACXA	2	14		inactive
Coq5	1	13		inactive
Coq5	2	5		inactive
Coq5	3	4		inactive
THADA	1	4		inactive
Nup54	1	6		inactive
Sec5	1	6		inactive
NimC2	1	2		inactive
CG12780	1	6		inactive
CG11755	1	5		inactive
CG11755	2	3		inactive
hppy	1	7		inactive
hppy	2	3		inactive
hppy	3	2		inactive
hppy	4	3		inactive
Syt1	1	36		inactive
Syt1	2	7		inactive
Syt1	3	35		inactive
Syt1	4	5		inactive
Syt1	5	9		inactive
Syt1	6	3		inactive
Nepl18	1	9		inactive
ND-B14.5A	1	12		inactive
Cnx14D	1	7		inactive
Cnx14D	2	9		inactive
Sardh	1	4		inactive
CG14565	1	4		inactive
CG14565	2	3		inactive
Sply	1	12		inactive
Sply	2	8		inactive
yin	1	12		inactive
yin	2	15		inactive
CG7706	1	12		inactive
CG7706	2	6		inactive
CG32797	1	14		inactive
CG9512	1	6		inactive
CG13950	1	2		inactive
CG13950	2	9		inactive
CG6136	1	8		inactive
TAF1B	1	2		inactive
mdu	1	10		inactive
mdu	2	3		inactive
Cpr49Ad	1			inactive
Kr	1	7		inactive
BomS2	1	11		inactive
Smr	1	22		inactive
Smr	2	15		inactive
Prat	1	8		inactive
Mnr	1	3		inactive
Mnr	2	12	12	inactive
Mnr	3	8		inactive
Raf	1	9		inactive
Raf	2	13		inactive
Raf	3	7		inactive
Osi8	1	5		inactive
Osi8	2	12		inactive
aop	1	8		inactive
aop	2	9		inactive
aop	3	18		inactive
CG3500	1	4		inactive
CG3500	2	5		inactive
btn	1	6		inactive
CG15233	1	9		inactive
CG6712	1	6		inactive
CG6712	2	18		inactive
Xxylt	1	9		inactive
CG5928	1	8		inactive
CG5928	2	1		inactive
Nlp	1	12		inactive
Nlp	2	4		inactive
pho	1	22		inactive
pho	2	13		inactive
CG9733	1	8		inactive
pyr	1	4		inactive
CG31823	1	8		inactive
Nadk2	1	8		inactive
Naxe	1	14		inactive
S	1	3		inactive
mth	1	5		inactive
mth	2	12		inactive
CG5770	1	3		inactive
CG5770	2	4		inactive
CG1309	1	6		inactive
CG32846	1	12		inactive
CG32846	2	6		inactive
CG13962	1	4		inactive
CG13962	2	8		inactive
Fas3	1	6		inactive
Fas3	2	11		inactive
Fas3	3			inactive
CG15930	1	16		inactive
CG15930	2	11		inactive
CG4546	1	7		inactive
CG4546	2	8		inactive
l(2)37Cd	1	4		inactive
CG11293 (retired record)	1	4		inactive
Pcmt	1	2		inactive
Cyp28d2	1	3		inactive
Cyp28d2	2	3		inactive
CG14563	1	9		inactive
CG6330	1	4		inactive
Ir10a	1	5		inactive
Ir10a	2	8		inactive
Ir10a	3	18		inactive
CG14313	1	11		inactive
CG14414	1	16		inactive
RPA3	1	8		inactive
MED26	1	19		inactive
MED26	2	15		inactive
MED26	3	12		inactive
rgr	1	9		inactive
rgr	2	4		inactive
CG1394	1	13		inactive
CG1394	2	3		inactive
CG30427	1	5		inactive
CG30427	2	2		inactive
CG30427	3	11		inactive
CG30427	4	8		inactive

10 entries already listed, sorted by “mitotic cells, replicate 1”, ascending.
target	dsRNA no.	mitotic cells, replicate 1	mitotic cells, replicate 2	activity call
hppy	3	2		inactive
hppy	4	3		inactive
Syt1	6	3		inactive
Syt1	4	5		inactive
Syt1	2	7		inactive
Syt1	5	9		inactive
Nepl18	1	9		inactive
ND-B14.5A	1	12		inactive
Syt1	3	35		inactive
Syt1	1	36		inactive
